We go through 1 sequence from patent publication US20060134638, “Error reduction in automated gene synthesis” (Blue Heron Biotechnology, Inc., published 2006).

The exact form of at least one protein or probe is not confirmed. Tags and fusion partners may be left off the protein sequences shown. A value given as a limit tells only on which side of the number the result lay.

The data set deals with T1, MutS (TaqMutS) (Thermus aquaticus) (UniProt Q56215).
T1 sequence (looked up, limits assumed): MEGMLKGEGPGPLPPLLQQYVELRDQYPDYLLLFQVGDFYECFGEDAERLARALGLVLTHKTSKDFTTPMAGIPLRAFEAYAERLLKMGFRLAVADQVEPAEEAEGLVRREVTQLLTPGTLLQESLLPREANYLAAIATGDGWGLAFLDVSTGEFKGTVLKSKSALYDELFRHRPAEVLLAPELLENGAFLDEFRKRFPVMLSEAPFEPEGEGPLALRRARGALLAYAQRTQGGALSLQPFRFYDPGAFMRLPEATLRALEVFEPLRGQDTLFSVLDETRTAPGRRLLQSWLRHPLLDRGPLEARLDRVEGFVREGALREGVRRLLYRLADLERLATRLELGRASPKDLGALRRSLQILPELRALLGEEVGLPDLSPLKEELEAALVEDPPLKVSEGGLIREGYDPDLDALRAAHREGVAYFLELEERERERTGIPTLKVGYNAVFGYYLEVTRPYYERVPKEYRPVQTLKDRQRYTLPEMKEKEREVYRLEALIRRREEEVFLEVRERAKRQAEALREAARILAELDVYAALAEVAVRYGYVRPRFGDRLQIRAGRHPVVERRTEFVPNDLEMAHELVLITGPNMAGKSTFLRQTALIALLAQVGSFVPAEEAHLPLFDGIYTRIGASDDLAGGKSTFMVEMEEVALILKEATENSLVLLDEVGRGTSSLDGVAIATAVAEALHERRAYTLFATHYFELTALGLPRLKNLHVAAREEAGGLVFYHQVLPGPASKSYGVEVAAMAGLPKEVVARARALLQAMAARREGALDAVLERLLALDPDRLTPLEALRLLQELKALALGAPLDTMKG
Briefly: activity assay. To be noted: 500 nM MutS, 40 nM DNA, 60 C, Micropure-EZ column retention; purified recombinant protein; protein details: Epicentre listed as commercial source; only the site is given.

As to GAAGGCGCCC / CTTCTCGCGGG, the activity on this sequence (% heteroduplex removed) is > 98.
